{"source": "the supplement of paper PMC7024190", "note": "The other results are listed elsewhere or left out. Single values are uncertain here, since repeats match poorly.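 Human embryonic kidney cells were transiently transfected with a plasmid bearing a Renilla luciferase gene under the HSV-TK promoter. This first-round screen tests roughly ten thousand compounds for ones that increase reporter output.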", "data": [{"tested_on": "HEK 293FT", "test": "log relative Renilla luciferase luminescence (reporter expression vs reference, reference not stated) (log (base not stated)); higher = higher recombinant reporter expression", "conditions": "10 µM; time after transfection 48 h", "method": "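HEK 293FT cells transiently transfected with pRL-TK (Renilla luciferase) were treated with compounds at 10 uM and luminescence was read about 42 h later. Values are log relative Renilla luminescence (log base and reference not stated). Single-pass screen; 2080 natural products library.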", "values": [{"smiles": "COC[C@H](Cc1ccc(OC)c(OC)c1)[C@H](COC)Cc1ccc(OC)c(OC)c1", "note": "[Phyllanthin]", "log": -0.02}, {"smiles": "CC(C)(O)[C@@H]1CC[C@@](C)([C@H]2CC[C@]3(C)[C@@H]2CC[C@@H]2[C@@]4(C)CCC(=O)C(C)(C)[C@@H]4CC[C@]23C)O1", "note": "[Cabraleone]", "log": -0.028}, {"smiles": "COc1cc(OC)c2ccc(=O)oc2c1[C@H]1C=C(C)CC(C)(C)[C@@H]1[C@@H](O)c1c(OC)cc(OC)c2ccc(=O)oc12", "note": "[Toddalosin]", "log": -0.142}, {"smiles": "C/C(=C/CC[C@@H](C)[C@H]1CC[C@@]2(C)C3=CC[C@H]4C(C)(C)C(=O)CC[C@]4(C)C3=CC[C@]12C)C(=O)O", "note": "[Ganoderic acid S]", "log": 0.0997}, {"smiles": "CC1=CCC[C@H]2[C@@]1(C)[C@@H](OC(=O)c1cccnc1)[C@H](OC(=O)c1cccnc1)[C@](C)(O)[C@]2(C)/C=C/C1=CC(=O)OC1", "note": "[Scutebarbatine A]", "log": 0.177}, {"smiles": "CC1(C)C(=O)CC[C@]2(C)[C@@H]1CC[C@@]13C[C@H](CC[C@H]12)[C@](O)(CO)C3", "note": "(single isomer, unassigned; ent-3) [ent-3-Oxokaurane-16,17-diol]", "log": -0.0758}, {"smiles": "COc1ccc2ccc(=O)oc2c1C[C@@H]1OC1(C)C", "note": "[Meranzin]", "log": 0.219}, {"smiles": "COc1c(O)c(OC)c2oc(-c3ccccc3)cc(=O)c2c1O", "note": "[5,7-Dihydroxy-6,8-dimethoxyflavone]", "log": -0.0651}, {"smiles": "COc1cc(O)c2c(=O)c(OC)c(-c3ccc(O)c(OC)c3)oc2c1", "note": "[Pachypodol]", "log": -0.0942}, {"smiles": "CC1CCC2(C(=O)O)CCC3(C)C(=CCC4C5(C)CC(O)C(O)C(C)(CO)C5CCC43C)C2C1C", "note": "(stereo unspecified) [2,24-Dihydroxyursolic acid]", "log": -0.142}, {"smiles": "CC1(C)C=Cc2c(c(O)cc3ccc(=O)oc23)O1", "note": "[Norbraylin]", "log": -0.341}, {"smiles": "CC1(C)CC[C@]2(C)CC[C@]3(C)[C@H]4CC=C5[C@@H](CC[C@H](O)C5(C)C)[C@]4(C)CC[C@@]3(C)[C@@H]2C1", "note": "[5-Glutinen-3-ol]", "log": -0.15}, {"smiles": "C[C@H]1[C@H](O)CC[C@@H]2[C@]1(C)CC[C@H]1[C@@]2(C)CC[C@@]2(C)[C@H]3CC(C)(C)CC[C@]3(C)CC[C@]12C", "note": "[Friedelanol]", "log": -0.17}, {"smiles": "C=C(CO)[C@@H]1CC[C@H]2[C@]3(CC[C@]4(C)[C@@H]([C@H](C)CCC=C(C)C)CC[C@@]24C)C[C@]13CCC(=O)O", "note": "[Secaubryenol]", "log": 0.0997}, {"smiles": "COc1ccc2c3c4n(c2c1)CC(C)(C)C4=NCC3", "note": "[Harmalidine]", "log": -0.0437}, {"smiles": "C=C(C(=O)O)[C@@H]1CC[C@@]2(C)CCCC(=C)[C@]2(O)C1", "note": "[5alpha-Hydroxycostic acid]", "log": -0.071}, {"smiles": "COc1ccc(-c2oc3c(OC)c(O)cc(O)c3c(=O)c2OC)cc1", "note": "[5,7-Dihydroxy-3,4',8-trimethoxyflavone]", "log": -0.253}, {"smiles": "CC1(C)C(=O)CC[C@]2(C)[C@@H]1CC[C@@]13C[C@@H](CC[C@H]12)[C@@H](CO)C3", "note": "(single isomer, unassigned; ent-17) [ent-17-Hydroxykauran-3-one]", "log": -0.594}, {"smiles": "O=C(O)C1=C[C@@H](O)[C@@H](O)[C@H](O)C1", "note": "[Shikimic acid]", "log": 0.0724}, {"smiles": "COc1cc(/C=C/COC(C)=O)cc(OC)c1O[C@@H]1O[C@H](COC(C)=O)[C@@H](OC(C)=O)[C@H](OC(C)=O)[C@H]1OC(C)=O", "note": "[Syringin pentaacetate]", "log": -0.111}, {"smiles": "COc1cc(OC)c2ccc(=O)oc2c1OC", "note": "[5,7,8-Trimethoxycoumarin]", "log": -0.174}, {"smiles": "CC(=O)O[C@@H]1CC[C@]2(C)[C@H]3CC[C@@H]4[C@@H]([C@]5(C)CC[C@@H](C(C)(C)O)O5)CC[C@@]4(C)[C@]3(C)CC[C@H]2C1(C)C", "note": "[Cabraleadiol 3-acetate]", "log": 0.0826}, {"smiles": "COc1cc(/C=C/C(=O)O[C@H]2CC[C@@]3(C)C(CC[C@]4(C)C3C=C[C@]35OC(=O)[C@@]6(CCC(C)[C@H](C)C63)CC[C@]54C)C2(C)C)ccc1O", "note": "(stereo partly specified) [Tereticornate A]", "log": 0.0366}, {"smiles": "C1=C/C2=C/c3ccc([nH]3)Cc3ccc([nH]3)/C=c3/cc/c([nH]3)=C/C1=N2", "note": "[Phlorin]", "log": 0.08}, {"smiles": "CC(=O)Oc1cc(O)c2c(c1)OC(c1c(OC(C)=O)cccc1OC(C)=O)CC2=O", "note": "(stereo unspecified) [2',6',7-Triacetoxy-5-hydroxyflavanone]", "log": 0.12}, {"smiles": "C=CC(C)(O)CCC(O)C(C)(C)O", "note": "(stereo unspecified) [2,6-Dimethyl-7-octene-2,3,6-triol]", "log": 0.282}]}]}
